According to doi:10.1101/2020.01.22.915017:
No constants are given. Whether binding was seen depends on the method and setting. Some results given as binding are weak or reduced against the parent protein; the word gives no strength. Tags and fused reporters may be left off the sequences shown.

Protein sequences, listed by entry. Tags and fused reporters are not part of them. Residues count along the entry.
UniProt O43493, residues 403-437: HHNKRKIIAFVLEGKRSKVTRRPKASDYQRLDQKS

Target: cytoplasmic domain of human TGN38 fused to the GAL4 DNA-binding domain (human) (UniProt O43493)
Experiment: two-hybrid

binding: binds
B1: µ3 subunit of AP-3 fused to the activation domain of GAL4 (protein, UniProt P53676 1-418)
chain: MIHSLFLINCSGDIFLEKHWKSVVSQSVCDYFFEAQEKAADVENVPTVISTPHHYLISIYRDKLFFVSVIQTEVPPLFVIEFLHRVADTFQDYFGECSEAAIKDNVVIVYELLEEMLDNGFPLATESNILKELIKPPTILRSVVNSITGSSNVGDTLPTGQLSNIPWRRAGVKYTNNEAYFDVVEEIDAIIDKSGSTVFAEIQGVIDACIKLSGMPDLSLSFMNPRLLDDVSFHPCIRFKRWESERVLSFIPPDGNFRLISYRVSSQNLVAIPVYVKHNISFKENSSCGRFDITIGPKQNMGKTIEGITVTVHMPKVVLNMNLTPTQGSYTFDPVTKVLAWDVGKITPQKLPSLKGLVNLQSGAPKPEENPNLNIQFKIQQLAISGLKVNRLDMYGEKYKPFKGVKYITKAGKFQVRT
